According to PMC6309994:
Numbering of substitutions follows the chain as printed. No constants are given. Whether binding was seen depends on the method and setting. Some binding calls cover weakened binding; strength is not graded here. Blank lines part the entries; values can stand above or below the binder they belong to.

How the values were obtained:
[1] = target: T1, mouse RNase H2 subunit A (Rnaseh2a), wild type (mouse) (UniProt Q9CWY8); test: SEC; co-expressed His-tagged subunits, purified; Hiload 16/60 Superdex 75pg column in 20 mM Tris-HCl (pH 7.5), 1 mM EDTA, 150 mM NaCl; fractions checked by SDS-PAGE; both purified
T1 sequence: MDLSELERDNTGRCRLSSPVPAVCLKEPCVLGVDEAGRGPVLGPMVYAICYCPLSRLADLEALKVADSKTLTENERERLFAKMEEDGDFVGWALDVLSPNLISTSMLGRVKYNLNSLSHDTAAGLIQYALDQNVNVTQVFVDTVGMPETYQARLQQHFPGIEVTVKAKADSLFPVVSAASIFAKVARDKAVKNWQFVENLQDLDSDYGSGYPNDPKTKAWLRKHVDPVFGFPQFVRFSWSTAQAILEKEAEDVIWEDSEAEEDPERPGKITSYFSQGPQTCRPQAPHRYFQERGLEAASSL

[2] = target: T2, mouse RNase H2 subunit A with the RED substitutions (P40D and Y211A) (mouse) (UniProt Q9CWY8); test: co-purification of co-expressed subunits, SDS-PAGE; RNase H2^RED expressed in E. coli, all three subunits His-tagged, purified to near homogeneity; bands seen by SDS-PAGE (Figure S1A); both purified
T2 sequence: T1 sequence with P40D, Y211A

[3] = target: T3, mouse RNase H2 subunit B (Rnaseh2b) (mouse) (UniProt Q80ZV0); test: SEC; co-expressed His-tagged subunits, purified; Hiload 16/60 Superdex 75pg column in 20 mM Tris-HCl (pH 7.5), 1 mM EDTA, 150 mM NaCl; fractions checked by SDS-PAGE; both purified
T3 sequence: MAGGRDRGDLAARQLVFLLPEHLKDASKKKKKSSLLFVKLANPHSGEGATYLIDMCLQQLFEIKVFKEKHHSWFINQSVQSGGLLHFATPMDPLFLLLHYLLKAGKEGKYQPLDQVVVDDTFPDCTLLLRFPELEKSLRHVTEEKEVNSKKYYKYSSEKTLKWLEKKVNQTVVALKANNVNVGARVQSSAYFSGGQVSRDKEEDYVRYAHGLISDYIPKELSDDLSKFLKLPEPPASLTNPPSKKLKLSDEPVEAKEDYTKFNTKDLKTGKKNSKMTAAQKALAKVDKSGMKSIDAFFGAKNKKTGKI

- binding [1]: binds
- binding [2]: binds
B1: mouse RNase H2 subunit B (Rnaseh2b) (protein, UniProt Q80ZV0 1-308)
chain: T3 sequence

- binding [1]: binds
- binding [3]: binds
- binding [2]: binds
B2: mouse RNase H2 subunit C (Rnaseh2c) (protein, UniProt Q9CQ18 1-166)
chain: MKNPEEAADGKQRIHLRPGSLRGAAPAKLHLLPCDVLVSRPAPVDRFFTPAVRHDADGLQASFRGRGLRGEEVAVPPGFAGFVMVTEEKGEGLIGKLNFSGDAEDKADEAQEPLERDFDRLIGATGSFSHFTLWGLETVPGPDAKVHRALGWPSLAAAIHAQVPED
